Publication PMC4113265 (Journal of Natural Products, 2014)

Test system: MIA PaCa-2 cells
Assay: MTT antiproliferation/cytotoxicity assay
Type: cell-based, human
Settings: MIA PaCa-2, MTT, concentration-response curves (Figure 2A)

## O=C(CCCCCCC(=O)Nc1ccccc1)NO [SAHA, vorinostat]
  potency relative to 1 in MIA PaCa-2 cells: significantly less active than 1
